PubChem BioAssay (EPA / NIEHS)
Values joined by “and” are separate entries in the source; they are usually repeats but may differ in a detail not shown here. Equal entries are not always repeated. The inconclusive results got no clear call from the source; some entries with a clear call stand among them for comparison. Where the call is inconclusive, the potency comes from a doubtful curve fit. Active and inactive are the calls of the source. The calls were made as follows: active = hit-call score of the fitted dose curve at least 0.9, where 1 is the maximum; inconclusive = response in the unintended direction; inactive = score below 0.9.

Protein sequences, listed by entry. Tags and fused reporters are not part of them. Lines headed by an entry give the natural chain unless they say otherwise; changes in a name come on top.
UniProt P04406: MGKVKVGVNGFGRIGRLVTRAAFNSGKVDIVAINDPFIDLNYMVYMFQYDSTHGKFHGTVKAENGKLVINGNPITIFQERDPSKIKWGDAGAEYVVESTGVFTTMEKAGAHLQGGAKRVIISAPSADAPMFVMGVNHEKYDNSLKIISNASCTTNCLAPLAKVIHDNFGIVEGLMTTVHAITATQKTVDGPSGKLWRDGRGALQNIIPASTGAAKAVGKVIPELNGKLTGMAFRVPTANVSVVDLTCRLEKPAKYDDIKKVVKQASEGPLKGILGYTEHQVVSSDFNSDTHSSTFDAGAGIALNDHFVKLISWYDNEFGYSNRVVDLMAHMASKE
UniProt P33261, whole entry, looked up: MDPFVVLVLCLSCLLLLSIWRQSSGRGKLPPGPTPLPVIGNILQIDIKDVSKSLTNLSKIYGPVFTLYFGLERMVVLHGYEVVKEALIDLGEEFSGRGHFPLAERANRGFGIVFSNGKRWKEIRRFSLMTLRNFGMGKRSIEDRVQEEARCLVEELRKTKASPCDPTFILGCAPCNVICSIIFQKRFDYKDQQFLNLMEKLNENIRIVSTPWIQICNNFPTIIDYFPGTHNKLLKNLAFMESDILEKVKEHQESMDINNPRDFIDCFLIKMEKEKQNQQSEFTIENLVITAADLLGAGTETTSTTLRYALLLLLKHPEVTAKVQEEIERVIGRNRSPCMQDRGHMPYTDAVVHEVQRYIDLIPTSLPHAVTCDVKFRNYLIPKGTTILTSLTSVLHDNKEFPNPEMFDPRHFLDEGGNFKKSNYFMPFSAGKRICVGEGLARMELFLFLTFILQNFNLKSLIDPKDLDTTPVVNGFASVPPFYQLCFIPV
UniProt P11712, whole entry, looked up: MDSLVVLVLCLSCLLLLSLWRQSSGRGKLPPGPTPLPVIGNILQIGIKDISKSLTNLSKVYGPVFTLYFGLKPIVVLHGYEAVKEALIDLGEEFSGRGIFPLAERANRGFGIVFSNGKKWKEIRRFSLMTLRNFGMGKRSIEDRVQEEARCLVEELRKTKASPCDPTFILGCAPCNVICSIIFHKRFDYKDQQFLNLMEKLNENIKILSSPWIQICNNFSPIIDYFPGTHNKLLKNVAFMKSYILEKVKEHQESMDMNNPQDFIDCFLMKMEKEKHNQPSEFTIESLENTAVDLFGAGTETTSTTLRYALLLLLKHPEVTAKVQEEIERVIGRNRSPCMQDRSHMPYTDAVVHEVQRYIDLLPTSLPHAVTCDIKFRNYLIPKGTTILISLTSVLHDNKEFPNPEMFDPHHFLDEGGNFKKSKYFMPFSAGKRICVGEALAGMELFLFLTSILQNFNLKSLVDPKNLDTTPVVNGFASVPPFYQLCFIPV
UniProt P08684, whole entry, looked up: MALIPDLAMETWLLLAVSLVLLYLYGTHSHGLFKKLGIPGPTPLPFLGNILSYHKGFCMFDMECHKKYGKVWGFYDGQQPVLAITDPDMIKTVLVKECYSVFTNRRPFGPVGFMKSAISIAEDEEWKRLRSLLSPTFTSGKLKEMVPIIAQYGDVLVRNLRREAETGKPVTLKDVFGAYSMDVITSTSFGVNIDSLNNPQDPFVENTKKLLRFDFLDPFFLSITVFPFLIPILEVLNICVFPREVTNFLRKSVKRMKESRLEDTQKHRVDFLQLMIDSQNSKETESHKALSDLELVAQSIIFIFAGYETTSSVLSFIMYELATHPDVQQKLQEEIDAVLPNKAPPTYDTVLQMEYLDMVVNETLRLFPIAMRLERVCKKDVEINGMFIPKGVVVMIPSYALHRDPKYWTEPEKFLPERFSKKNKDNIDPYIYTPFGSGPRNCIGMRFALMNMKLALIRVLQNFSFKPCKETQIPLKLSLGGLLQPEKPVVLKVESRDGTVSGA
UniProt Q9UNQ0: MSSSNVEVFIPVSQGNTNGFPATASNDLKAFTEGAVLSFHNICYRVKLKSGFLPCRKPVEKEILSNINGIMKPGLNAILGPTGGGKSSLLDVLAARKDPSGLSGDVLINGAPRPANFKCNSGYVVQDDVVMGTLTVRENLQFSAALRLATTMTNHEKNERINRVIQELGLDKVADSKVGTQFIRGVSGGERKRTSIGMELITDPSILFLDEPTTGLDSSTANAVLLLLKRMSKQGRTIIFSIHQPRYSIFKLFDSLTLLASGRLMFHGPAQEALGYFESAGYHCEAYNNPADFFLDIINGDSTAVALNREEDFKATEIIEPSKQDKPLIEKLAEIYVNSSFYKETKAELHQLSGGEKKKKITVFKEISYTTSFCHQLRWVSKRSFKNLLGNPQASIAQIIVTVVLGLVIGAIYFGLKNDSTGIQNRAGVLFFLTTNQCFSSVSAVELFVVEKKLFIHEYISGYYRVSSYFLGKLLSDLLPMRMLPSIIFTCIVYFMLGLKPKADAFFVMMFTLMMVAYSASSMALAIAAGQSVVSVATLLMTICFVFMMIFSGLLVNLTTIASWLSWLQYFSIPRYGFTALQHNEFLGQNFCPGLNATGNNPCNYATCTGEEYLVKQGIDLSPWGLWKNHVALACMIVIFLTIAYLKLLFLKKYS
UniProt P20813: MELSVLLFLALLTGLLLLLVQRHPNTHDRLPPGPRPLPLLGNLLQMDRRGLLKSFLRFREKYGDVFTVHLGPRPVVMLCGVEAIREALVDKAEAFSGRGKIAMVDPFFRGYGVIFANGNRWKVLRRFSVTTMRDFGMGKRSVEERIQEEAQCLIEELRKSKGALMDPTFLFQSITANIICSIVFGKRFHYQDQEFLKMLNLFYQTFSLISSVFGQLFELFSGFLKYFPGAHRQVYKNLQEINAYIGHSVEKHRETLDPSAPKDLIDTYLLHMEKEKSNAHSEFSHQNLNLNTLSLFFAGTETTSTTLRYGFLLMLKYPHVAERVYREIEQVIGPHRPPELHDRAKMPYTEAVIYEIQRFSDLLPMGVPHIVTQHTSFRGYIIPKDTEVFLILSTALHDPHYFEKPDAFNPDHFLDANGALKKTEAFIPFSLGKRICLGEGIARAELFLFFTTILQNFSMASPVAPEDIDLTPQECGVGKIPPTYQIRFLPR

What was measured:
[1] = read-out: organic anion transporter (SLCO1B1), SLCO1B1 (gene 10599); test: CLD_SLCO1B1_24hr: CellzDirect (CLD) Gene Expression Assay for organic anion transporter (SLCO1B1) at 24 hours (AID 2283690)
Summary of the method: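 SLCO1B1 mRNA induction read at 24 h by quantitative nuclease protection assay (chemiluminescence), analyzed against DMSO baseline. Human hepatocyte cultures from separate donors received fresh dosing solutions daily; vehicle 0.2% DMSO; cytotoxicity flagged by phase-contrast morphology.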

[2] = read-out: HMG-CoA synthase (HMGCS2), HMGCS2 (gene 3158); test: CLD_HMGCS2_24hr: CellzDirect (CLD) Gene Expression Assay for HMG-CoA synthase (HMGCS2) at 24 hours (AID 2283691)
Summary of the method: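 qNPA with S1 nuclease digestion and chemiluminescent detection gave HMGCS2 transcript levels, fitted upward against 0.2% DMSO vehicle. Cultured human hepatocytes (two donors) received fresh compound daily and were harvested at 24 h; phase-contrast morphology flagged cytotoxicity.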

[3] = read-out: Glyceraldehyde-3-phosphate dehydrogenase (Homo sapiens) (UniProt P04406); test: CLD_GAPDH_24hr: CellzDirect (CLD) Gene Expression Assay for Baseline Control (Glyceraldehyde 3-phosphate dehydrogenase) at 24 hours (AID 2283692)
Summary of the method: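 GAPDH baseline-control readout: qNPA chemiluminescent mRNA signal in human primary hepatocytes harvested 24 h after daily dosing, normalised to 0.2% DMSO with positive fitting direction; cytotoxicity annotated by phase-contrast morphology.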

[4] = read-out: ABC Transporter (ABCB11), ABCB11 (gene 8647); test: CLD_ABCB11_48hr: CellzDirect (CLD) Gene Expression Assay for ABC Transporter (ABCB11) at 48 hours (AID 2283697)
Summary of the method: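 Induction of ABCB11 mRNA relative to 0.2% DMSO, measured at 48 h by qNPA chemiluminescence. Cultured human hepatocytes (two donors) received fresh dosing solutions at several concentrations on two consecutive days.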

[5] = read-out: Cytochrome P450 2C19 (Homo sapiens) (UniProt P33261); test: CLD_CYP2C19_48hr: CellzDirect (CLD) Gene Expression Assay for xenobiotic metabolism (CYP2C19) at 48 hours (AID 2283700)
Summary of the method: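 CYP2C19 mRNA induction read by chemiluminescent quantitative nuclease protection assay after 48 h, with fresh compound added daily for two days to cultured human liver hepatocytes. Activity fitted upward against 0.2% DMSO vehicle.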

[6] = CLD_ACTIN_48hr: CellzDirect (CLD) Gene Expression Assay for Baseline Control (Actin) at 48 hours (AID 2283702)
Summary of the method: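 Background-control actin mRNA read by qNPA chemiluminescence at 48 h. Human hepatocyte cultures from two donors received fresh multi-concentration chemical doses daily for two days; 0.2% DMSO served as vehicle baseline.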

[7] = read-out: xenobiotic metabolism (CYP1A1), CYP1A1 (gene 1543); test: CLD_CYP1A1_48hr: CellzDirect (CLD) Gene Expression Assay for xenobiotic metabolism (CYP1A1) at 48 hours (AID 2283705)
Summary of the method: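 CYP1A1 transcript measured by quantitative nuclease protection (chemiluminescent) 48 h after two daily treatments of human hepatocyte cultures, versus 0.2% DMSO. Morphology-based cytotoxicity flags accompany data; two donor preparations used.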

[8] = read-out: Glyceraldehyde-3-phosphate dehydrogenase (Homo sapiens) (UniProt P04406); test: CLD_GAPDH_48hr: CellzDirect (CLD) Gene Expression Assay for Baseline Control (Glyceraldehyde 3-phosphate dehydrogenase) at 48 hours (AID 2283706)
Summary of the method: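 GAPDH baseline-control readout: qNPA chemiluminescent mRNA quantitation in human liver primary cells 48 h after daily dosing on two consecutive days, vehicle 0.2% DMSO; gain of signal fitted against DMSO, cytotoxicity flagged by phase-contrast morphology.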

[9] = read-out: organic anion transporter (SLCO1B1), SLCO1B1 (gene 10599); test: CLD_SLCO1B1_48hr: CellzDirect (CLD) Gene Expression Assay for organic anion transporter (SLCO1B1) at 48 hours (AID 2283707)
Summary of the method: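 SLCO1B1 transcript quantified by qNPA with chemiluminescent readout after 48 h of once-daily chemical exposure. Cultured human primary hepatocytes came from two donors, with 0.2% DMSO vehicle; positive-direction fitting against DMSO, cytotoxicity flagged by morphology.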

[10] = read-out: Cytochrome P450 2C9 (Homo sapiens) (UniProt P11712); test: CLD_CYP2C9_24hr: CellzDirect (CLD) Gene Expression Assay for xenobiotic metabolism (CYP2C9) at 24 hours (AID 2283688);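 also: potency for induction meaning a rise in CYP2C9 mRNA over DMSO vehicle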
Summary of the method: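 Induction of CYP2C9 mRNA was quantified by quantitative nuclease protection assay (chemiluminescence), gain of signal versus 0.2% DMSO vehicle, 24 h after dosing. Human primary hepatocytes (two donors) received fresh chemical daily at multiple concentrations; morphology-based cytotoxicity flagged yes/no.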

[11] = read-out: Cytochrome P450 3A4 (Homo sapiens) (UniProt P08684); test: CLD_CYP3A4_24hr: CellzDirect (CLD) Gene Expression Assay for xenobiotic metabolism (CYP3A4) at 24 hours (AID 2283689)
Summary of the method: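 CYP3A4 mRNA induction read by quantitative nuclease protection (chemiluminescence) 24 hr after dosing. Cultured human hepatocytes (two donor preparations) treated daily, vehicle 0.2% DMSO; phase-contrast morphology annotates cytotoxicity.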

[12] = read-out: alkyl and aryl transferase (GSTA2), GSTA2 (gene 2939); test: CLD_GSTA2_24hr: CellzDirect (CLD) Gene Expression Assay for alkyl and aryl transferase (GSTA2) at 24 hours (AID 2283693)
Summary of the method: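 GSTA2 transcript levels were quantified by quantitative nuclease protection assay in primary human hepatocytes 24 h after daily dosing with fresh solutions at multiple concentrations; 0.2% DMSO vehicle as baseline, cytotoxicity flagged morphologically.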

[13] = read-out: Broad substrate specificity ATP-binding cassette transporter ABCG2 (Homo sapiens) (UniProt Q9UNQ0); test: CLD_ABCG2_48hr: CellzDirect (CLD) Gene Expression Assay for ABC Transporter (ABCG2) at 48 hours (AID 2283704);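 as to AC50: potency for induction of ABCG2 mRNA above the DMSO baseline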
Summary of the method: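 ABCG2 transcript measured at 48 h by quantitative nuclease protection (chemiluminescent) and fitted for increase relative to 0.2% DMSO. Hepatocyte cultures from separate donors got fresh compound daily over two days; morphology annotated cytotoxicity.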

[14] = read-out: Cytochrome P450 2C19 (Homo sapiens) (UniProt P33261); test: CLD_CYP2C19_24hr: CellzDirect (CLD) Gene Expression Assay for xenobiotic metabolism (CYP2C19) at 24 hours (AID 2283687)
Summary of the method: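 CYP2C19 mRNA was quantified by qNPA chemiluminescence after 24 h of daily dosing of cultured human primary hepatocytes from two donors; vehicle was 0.2% DMSO, and increases over DMSO baseline were fitted.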

[15] = read-out: sulfotransferase (SULT2A), SULT2A1 (gene 6822); test: CLD_SULT2A_24hr: CellzDirect (CLD) Gene Expression Assay for sulfotransferase (SULT2A) at 24 hours (AID 2283694);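 as to AC50: potency for increased SULT2A1 mRNA level as induction over DMSO baseline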
Summary of the method: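 mRNA is measured by qNPA: probe hybridisation, S1 nuclease digestion, chemiluminescence, in lysates from human primary hepatocytes harvested 24 h after daily dosing. Vehicle was 0.2% DMSO. Phase-contrast microscopy flagged cytotoxicity (yes/no).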

[16] = read-out: ABC Transporter (ABCB1), ABCB1 (gene 5243); test: CLD_ABCB1_48hr: CellzDirect (CLD) Gene Expression Assay for ABC Transporter (ABCB1) at 48 hours (AID 2283695);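 as to AC50: potency for induction meaning increase of mRNA over DMSO vehicle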
Summary of the method: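 ABCB1 mRNA was measured by quantitative nuclease protection assay (chemiluminescence) 48 h after dosing. Human hepatocyte cultures from two separate donors received fresh dosing solutions daily for two days, with 0.2% DMSO as vehicle. Positive-direction fit against DMSO.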

[17] = read-out: Cytochrome P450 2B6 (Homo sapiens) (UniProt P20813); test: CLD_CYP2B6_48hr: CellzDirect (CLD) Gene Expression Assay for xenobiotic metabolism (CYP2B6) at 48 hours (AID 2283699);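 also: actives raise transcript level above DMSO so potency reflects induction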
Summary of the method: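 CYP2B6 transcript induction, read by quantitative nuclease protection (S1 digestion, chemiluminescent detection) 48 h after dosing, is fitted upward against 0.2% DMSO. Cultured human liver primary cells, two donor preparations, received fresh chemical daily over multiple concentrations.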

[18] = read-out: alkyl and aryl transferase (GSTA2), GSTA2 (gene 2939); test: CLD_GSTA2_48hr: CellzDirect (CLD) Gene Expression Assay for alkyl and aryl transferase (GSTA2) at 48 hours (AID 2283708);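 also: active means mRNA induction above DMSO vehicle baseline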
Summary of the method: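 GSTA2 mRNA quantified by qNPA chemiluminescence in human primary hepatocyte lysates after 48 h of daily fresh chemical dosing. Increases fitted against 0.2% DMSO vehicle baseline; cytotoxicity from morphology annotated yes/no.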

Measured: AC50

Cc1c(COC(=O)[C@@H]2[C@H](/C=C(\Cl)C(F)(F)F)C2(C)C)cccc1-c1ccccc1
inactive: [1] | [9]
active: [7] 20 µM
inconclusive: [2] 0.000477 µM | [3] 33.8 µM | [4] 20 µM | [5] 3.97 µM | [6] 0.752 µM | [8] 11.6 µM

CN(C)NC(=O)CCC(=O)O
inconclusive: [10] 0.0004 µM | [2] 0.0004 µM | [12] 20 µM | [6] 20 µM | [13] 20 µM | [7] 20 µM
inactive: [11] | [8]

Nc1c(Cl)cc([N+](=O)[O-])cc1Cl
inconclusive: [14] 20 µM | [1] 20 µM | [2] 20 µM | [3] 3.97 µM | [5] 20 µM | [6] 20 µM | [13] 20 µM
inactive: [12]

COP(=S)(OC)Oc1nc(Cl)c(Cl)cc1Cl
inactive: [14] | [3] | [7] | [8]
inconclusive: [4] 3.97 µM | [5] 3.97 µM | [6] 3.97 µM

CCCCOC(=O)c1ccccc1C(=O)OCCCC
inconclusive: [10] 7.34 µM | [1] 24.7 nM and 0.4 nM | [12] 20 µM | [4] 20 µM and 0.648 nM | [17] 0.0178 µM | [5] 20 µM | [6] 20 µM | [7] 0.125 µM | [18] 20 µM
inactive: [15] | [16] | [17] | [13] | [7]

COc1ccc(C(=CC(=O)N2CCOCC2)c2ccc(Cl)cc2)cc1OC
inconclusive: [2] 20 µM | [4] 20 µM | [5] 20 µM | [8] 7.4 µM | [9] 20 µM
inactive: [1] | [3] | [12]
active: [16] 31 µM | [18] 32.2 µM

CN1CSC(=S)N(C)C1
inconclusive: [11] 20 µM | [2] 4.51 µM | [16] 20 µM | [4] 20 µM | [17] 8.46 µM | [5] 20 µM | [6] 20 µM
inactive: [12] | [8]

CC(Oc1ccc(Cl)cc1Cl)C(=O)O (stereo unspecified)
inconclusive: [11] 0.00289 µM | [2] 0.000426 µM | [15] 0.000394 µM | [5] 20 µM | [6] 20 µM | [13] 20 µM | [7] 0.0331 µM | [9] 20 µM
inactive: [14] | [3] | [12] | [17] | [8]

CCCN(CCC)c1c([N+](=O)[O-])cc(C(F)(F)F)cc1[N+](=O)[O-]
inconclusive: [14] 14.2 µM | [2] 0.0004 µM | [5] 13 µM | [6] 7.29 µM | [8] 15.7 µM | [9] 20 µM

CC(C)OC(=O)Nc1cccc(Cl)c1
inactive: [5] | [8] | [9]
inconclusive: [3] 20 µM | [16] 0.0374 µM | [13] 0.0314 µM
active: [11] 16 µM

Pulled by compound from the entries so far (two):
Cc1c(COC(=O)[C@@H]2[C@H](/C=C(\Cl)C(F)(F)F)C2(C)C)cccc1-c1ccccc1
inactive: [1] | [9]
active: [7] 20 µM
inconclusive: [2] 0.000477 µM | [3] 33.8 µM | [4] 20 µM | [5] 3.97 µM | [6] 0.752 µM | [8] 11.6 µM

COc1ccc(C(=CC(=O)N2CCOCC2)c2ccc(Cl)cc2)cc1OC
inconclusive: [2] 20 µM | [4] 20 µM | [5] 20 µM | [8] 7.4 µM | [9] 20 µM
inactive: [1] | [3] | [12]
active: [16] 31 µM | [18] 32.2 µM
